The target of this assay is Arid1a (mouse (endogenous in mESCs)) (UniProt A2BH40). Kind of assay: affinity purification with mass spectrometry; endogenous Arid1a immunoprecipitated from mESC nuclear lysate (lysis at 450 mM NaCl; IP at 150 mM or 450 mM NaCl, 1-2 h, 4°C) with antibody PSG3 on Protein G-Dynabeads; LC-MS of the digest.

Amino acid sequences for entries named in this document (tags omitted).
UniProt A2BH40: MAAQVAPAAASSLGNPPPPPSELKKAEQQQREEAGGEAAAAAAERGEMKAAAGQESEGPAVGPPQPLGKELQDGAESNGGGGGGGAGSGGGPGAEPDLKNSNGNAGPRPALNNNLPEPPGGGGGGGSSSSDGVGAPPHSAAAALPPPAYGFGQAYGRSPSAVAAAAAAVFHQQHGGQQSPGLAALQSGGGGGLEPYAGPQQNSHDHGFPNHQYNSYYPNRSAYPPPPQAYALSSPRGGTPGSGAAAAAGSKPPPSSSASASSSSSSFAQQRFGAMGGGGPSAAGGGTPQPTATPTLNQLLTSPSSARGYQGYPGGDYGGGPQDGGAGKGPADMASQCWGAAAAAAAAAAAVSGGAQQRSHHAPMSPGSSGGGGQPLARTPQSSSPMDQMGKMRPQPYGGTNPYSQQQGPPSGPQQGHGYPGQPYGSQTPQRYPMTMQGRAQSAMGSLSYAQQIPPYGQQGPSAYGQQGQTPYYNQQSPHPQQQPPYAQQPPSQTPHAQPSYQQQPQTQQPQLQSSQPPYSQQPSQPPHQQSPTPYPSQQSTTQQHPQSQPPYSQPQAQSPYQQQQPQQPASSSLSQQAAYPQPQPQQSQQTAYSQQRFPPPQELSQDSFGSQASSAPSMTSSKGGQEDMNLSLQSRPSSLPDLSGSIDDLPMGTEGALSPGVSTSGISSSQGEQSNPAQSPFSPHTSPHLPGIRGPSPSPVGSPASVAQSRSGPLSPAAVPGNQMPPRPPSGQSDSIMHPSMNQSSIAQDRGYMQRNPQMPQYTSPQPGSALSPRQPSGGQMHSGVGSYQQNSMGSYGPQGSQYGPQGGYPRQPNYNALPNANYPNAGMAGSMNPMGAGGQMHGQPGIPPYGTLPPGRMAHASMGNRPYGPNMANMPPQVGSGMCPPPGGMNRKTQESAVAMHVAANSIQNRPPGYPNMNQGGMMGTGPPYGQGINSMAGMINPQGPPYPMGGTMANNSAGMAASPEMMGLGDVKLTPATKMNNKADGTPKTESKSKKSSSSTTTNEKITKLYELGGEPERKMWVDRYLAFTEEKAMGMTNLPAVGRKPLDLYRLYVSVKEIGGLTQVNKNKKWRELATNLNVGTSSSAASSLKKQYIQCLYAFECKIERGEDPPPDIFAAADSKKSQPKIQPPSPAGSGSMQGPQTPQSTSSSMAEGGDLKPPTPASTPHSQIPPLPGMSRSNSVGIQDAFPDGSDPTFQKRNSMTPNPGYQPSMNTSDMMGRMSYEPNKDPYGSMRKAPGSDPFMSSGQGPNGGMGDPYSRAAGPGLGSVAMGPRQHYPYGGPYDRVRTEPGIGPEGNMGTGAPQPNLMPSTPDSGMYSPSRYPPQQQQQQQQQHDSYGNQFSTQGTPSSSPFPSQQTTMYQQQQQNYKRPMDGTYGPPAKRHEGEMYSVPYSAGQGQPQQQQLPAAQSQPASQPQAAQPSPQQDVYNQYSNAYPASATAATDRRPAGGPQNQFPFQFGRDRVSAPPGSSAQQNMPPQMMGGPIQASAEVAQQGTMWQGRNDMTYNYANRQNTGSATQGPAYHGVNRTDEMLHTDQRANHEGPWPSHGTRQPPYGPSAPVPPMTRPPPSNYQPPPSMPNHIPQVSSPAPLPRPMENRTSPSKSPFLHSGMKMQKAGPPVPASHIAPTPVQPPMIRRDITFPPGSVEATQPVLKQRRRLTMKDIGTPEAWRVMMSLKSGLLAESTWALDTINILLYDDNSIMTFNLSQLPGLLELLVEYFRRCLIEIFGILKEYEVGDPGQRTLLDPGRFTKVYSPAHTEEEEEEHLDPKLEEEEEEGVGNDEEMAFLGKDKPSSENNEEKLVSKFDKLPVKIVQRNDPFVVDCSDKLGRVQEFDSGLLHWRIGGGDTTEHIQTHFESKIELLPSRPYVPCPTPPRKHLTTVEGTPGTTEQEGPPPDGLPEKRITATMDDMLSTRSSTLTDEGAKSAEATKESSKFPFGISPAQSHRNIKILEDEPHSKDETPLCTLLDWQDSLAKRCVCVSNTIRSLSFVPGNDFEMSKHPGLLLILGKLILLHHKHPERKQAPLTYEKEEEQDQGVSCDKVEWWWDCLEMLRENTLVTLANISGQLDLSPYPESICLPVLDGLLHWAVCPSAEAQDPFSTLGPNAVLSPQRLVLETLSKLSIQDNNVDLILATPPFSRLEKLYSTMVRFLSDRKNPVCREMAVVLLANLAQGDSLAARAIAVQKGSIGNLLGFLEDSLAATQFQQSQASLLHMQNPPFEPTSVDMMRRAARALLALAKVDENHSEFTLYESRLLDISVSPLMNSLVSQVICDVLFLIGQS
UniProt Q8K019: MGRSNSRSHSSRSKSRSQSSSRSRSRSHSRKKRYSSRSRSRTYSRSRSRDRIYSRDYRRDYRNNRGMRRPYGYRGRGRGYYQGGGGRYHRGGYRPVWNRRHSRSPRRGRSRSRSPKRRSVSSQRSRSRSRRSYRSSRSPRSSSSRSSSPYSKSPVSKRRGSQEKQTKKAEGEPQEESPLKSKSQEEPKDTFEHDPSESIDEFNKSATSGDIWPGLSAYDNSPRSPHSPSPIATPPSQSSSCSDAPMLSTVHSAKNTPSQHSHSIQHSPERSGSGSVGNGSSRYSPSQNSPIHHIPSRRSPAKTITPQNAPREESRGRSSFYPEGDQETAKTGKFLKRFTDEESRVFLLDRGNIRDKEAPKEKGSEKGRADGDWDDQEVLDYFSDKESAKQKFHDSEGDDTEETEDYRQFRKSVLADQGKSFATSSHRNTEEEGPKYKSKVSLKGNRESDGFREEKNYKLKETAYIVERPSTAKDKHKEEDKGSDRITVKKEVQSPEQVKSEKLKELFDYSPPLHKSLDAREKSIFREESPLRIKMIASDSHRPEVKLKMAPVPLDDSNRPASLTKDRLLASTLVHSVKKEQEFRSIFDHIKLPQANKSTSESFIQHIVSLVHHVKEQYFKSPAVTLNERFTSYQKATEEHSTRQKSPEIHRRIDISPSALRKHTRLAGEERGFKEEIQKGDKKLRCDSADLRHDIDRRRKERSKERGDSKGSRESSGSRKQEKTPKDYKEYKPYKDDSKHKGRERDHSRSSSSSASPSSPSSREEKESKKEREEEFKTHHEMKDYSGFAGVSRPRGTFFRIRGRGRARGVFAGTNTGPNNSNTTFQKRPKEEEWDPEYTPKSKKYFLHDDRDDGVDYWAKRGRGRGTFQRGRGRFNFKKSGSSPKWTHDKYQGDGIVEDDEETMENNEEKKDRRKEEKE

Results are given in words; binding and its absence hold for the method and conditions named. Binding seen in cells or lysates may run through a third protein. Here binding means that the protein was enriched with, or labelled near, the bait; the list need not be complete.

Take Bclaf1 (from UniProt Q8K019 1-919): the binding entry was “binds”.

The record behind these values is PMC9270653.
